Results are given in words; binding and its absence hold for the method and conditions named. Some results given as binding are weak or reduced against the parent protein; the word gives no strength. One block for each binder: values may come before it.
Experiments:
[1] = biological target: T1, human FGFR4 protein (antigen of the ELISA, form not stated) (human) (UniProt P22455); assay: ELISA
T1 sequence (looked up): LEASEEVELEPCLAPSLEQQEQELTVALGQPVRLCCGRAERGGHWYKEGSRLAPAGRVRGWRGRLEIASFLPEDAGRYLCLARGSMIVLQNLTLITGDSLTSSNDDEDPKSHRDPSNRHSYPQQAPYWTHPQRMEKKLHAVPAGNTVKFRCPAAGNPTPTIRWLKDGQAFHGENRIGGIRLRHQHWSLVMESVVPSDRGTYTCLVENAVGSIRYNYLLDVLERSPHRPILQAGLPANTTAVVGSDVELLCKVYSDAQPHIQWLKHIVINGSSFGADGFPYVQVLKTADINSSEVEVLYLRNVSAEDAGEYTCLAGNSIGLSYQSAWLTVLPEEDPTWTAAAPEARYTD

[2] = biological target: T1, human FGFR4 protein (antigen of the ELISA, form not stated) (human); assay: ELISA (column 'Assay Positive')
[3] = biological target: cell surface human FGFR4 (full-length human wild type FGFR4) (human) (UniProt P22455); assay: flow cytometry (column 'Assay Positive')
[4] = biological target: cell surface human FGFR4 (full-length human wild type FGFR4) (human) (UniProt P22455); assay: flow cytometry
[5] = biological target: cell surface human FGFR4 (full-length human wild type FGFR4) (human) (UniProt P22455); assay: flow cytometry titration on RH30 and RD cells, 0-10 ug/ml
[6] = biological target: cell surface human FGFR4 (full-length human wild type FGFR4) (human) (UniProt P22455); assay: flow cytometry titration on RMS cell lines, 0-10 ug/ml
[7] = biological target: cell surface human FGFR4 (full-length human wild type FGFR4) (human) (UniProt P22455); assay: IHC on tissue microarrays: Rh30, Rh41, Rh18 and Rh36 xenograft tissue and RMS tumors
[8] = biological target: cell surface human FGFR4 (full-length human wild type FGFR4) (human) (UniProt P22455); assay: flow cytometry on RD (ERMS) and RH30 (ARMS) cells
[9] = biological target: cell surface human FGFR4 (full-length human wild type FGFR4) (human) (UniProt P22455); assay: flow cytometry, RMS772-FGFR4 cells, 1 ug/mL mAb
[10] = biological target: cell surface human FGFR4 (full-length human wild type FGFR4) (human) (UniProt P22455); assay: flow cytometry, 1 ug/mL mAb and fluorochrome-conjugated secondary antibody, RMS772-FGFR4 cells against RMS772-puro vector cells
[11] = biological target: cell surface human FGFR4 (full-length human wild type FGFR4) (human) (UniProt P22455); assay: flow cytometry of surface-bound mAb, saturating amount of mAb, RD cells
[12] = biological target: cell surface human FGFR4 (full-length human wild type FGFR4) (human) (UniProt P22455); assay: flow cytometry of surface-bound mAb, saturating amount of mAb, RH30 cells

binding [1]: binds
binding [2]: binds
binding [3]: binds
binding [4]: binds
B1: 1G5 mouse anti-FGFR4 mAb (antibody, V domains shown)
VH: QVQLQQSGAELVRPGASVTLSCKASGYTFTDYEMHWVKKIPVYGLEWIGAIDPETYGTAYNQKFKGKATLTADKSSSTAYMEVRSLTSEDSAVYYCTRGGYYGSDFDYWGQGTTLTVSS
VL: DIQMNQSPSSLSASLGDTITITCHASQNINVWLSWYQQKPGNIPKLLIYKASNLHTGVPSRFSGSGSGTGFTLTISSLQPEDIATYYCQQGQSYPWTFGGGTKLEIK

binding [1]: binds
binding [2]: binds
binding [3]: binds
binding [4]: binds
B2: 57.1 rabbit anti-FGFR4 mAb (antibody, V domains shown)
VH: QSVKESEGRLVTPGTPLTLTCTVSGFSLSTYAMSWVRQAPEKGLEWIGIIYATAETYYATWARGRFTISKTSTTVDLKITSPATEDTATYFCARLNGDGSGTYAYDIWGPGTLVTVSS
VL: ELVMTQTPSPVSAAVGGTVTINCQASQSISSSYLSWYQQKPGQPPKLLIYKASTRPSGVSSRFKGSGSGTQFTLTISGVQCADAATYYCLYGYYIDSGADNSFGGGTEVVVK

binding [5]: binds
binding [1]: binds
binding [6]: binds
binding [7]: binds
binding [2]: binds
binding [8]: binds
binding [3]: binds
binding [9]: binds
binding [10]: binds
binding [11]: binds
binding [12]: binds
binding [4]: binds
B3: 29.2 rabbit anti-FGFR4 mAb (antibody, V domains shown)
VH: QSVKESEGRLVTPGTPLTLTCTVSGFSLSSNSVGWVRQAPGKGLEWIGIISSSGNRYYASWAKGRFTISKTSTTVDLKITSPTTEDTATYFCGGDPVSWYGDIWGPGTLVTVSS
VL: ELVLTQTPSSVSAAVGGTVTINCQSSPSLYKNNYLSWYQQKPGQPPKLLIYSASTLASGVPSRFKGSGSGTEYTLTISGVQCDDAATYYCLGGYSLSSDSPRAFGGGTEVVVK
